Structures can show the parent of a compound that is named as a salt. The list shows a part of the results. The calls rarely recur for the same compound in another form.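 Kinases were expressed as nanoluciferase fusions in K562 cells and luminescence was read every 4 h between 2 and 18 h as percent of control, DMSO set to 100% and a positive control to 0%. A time point counts as decreased when the signal drops significantly (2 sigma). The hit call is the authors' own, does not follow from the count of time points alone, and its rule is not shown.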
biological target: ALK (UniProt Q9UM73); assay: kinase-Nluc reporter destabilization hit call (1 = scored as downregulated) (binary); higher = compound decreases kinase abundance; conditions: K562; 2-18 h

Amino acid sequences for entries named in this document (tags omitted). A change or cut given only in a name is not applied to a line headed by its entry.
UniProt Q9UM73: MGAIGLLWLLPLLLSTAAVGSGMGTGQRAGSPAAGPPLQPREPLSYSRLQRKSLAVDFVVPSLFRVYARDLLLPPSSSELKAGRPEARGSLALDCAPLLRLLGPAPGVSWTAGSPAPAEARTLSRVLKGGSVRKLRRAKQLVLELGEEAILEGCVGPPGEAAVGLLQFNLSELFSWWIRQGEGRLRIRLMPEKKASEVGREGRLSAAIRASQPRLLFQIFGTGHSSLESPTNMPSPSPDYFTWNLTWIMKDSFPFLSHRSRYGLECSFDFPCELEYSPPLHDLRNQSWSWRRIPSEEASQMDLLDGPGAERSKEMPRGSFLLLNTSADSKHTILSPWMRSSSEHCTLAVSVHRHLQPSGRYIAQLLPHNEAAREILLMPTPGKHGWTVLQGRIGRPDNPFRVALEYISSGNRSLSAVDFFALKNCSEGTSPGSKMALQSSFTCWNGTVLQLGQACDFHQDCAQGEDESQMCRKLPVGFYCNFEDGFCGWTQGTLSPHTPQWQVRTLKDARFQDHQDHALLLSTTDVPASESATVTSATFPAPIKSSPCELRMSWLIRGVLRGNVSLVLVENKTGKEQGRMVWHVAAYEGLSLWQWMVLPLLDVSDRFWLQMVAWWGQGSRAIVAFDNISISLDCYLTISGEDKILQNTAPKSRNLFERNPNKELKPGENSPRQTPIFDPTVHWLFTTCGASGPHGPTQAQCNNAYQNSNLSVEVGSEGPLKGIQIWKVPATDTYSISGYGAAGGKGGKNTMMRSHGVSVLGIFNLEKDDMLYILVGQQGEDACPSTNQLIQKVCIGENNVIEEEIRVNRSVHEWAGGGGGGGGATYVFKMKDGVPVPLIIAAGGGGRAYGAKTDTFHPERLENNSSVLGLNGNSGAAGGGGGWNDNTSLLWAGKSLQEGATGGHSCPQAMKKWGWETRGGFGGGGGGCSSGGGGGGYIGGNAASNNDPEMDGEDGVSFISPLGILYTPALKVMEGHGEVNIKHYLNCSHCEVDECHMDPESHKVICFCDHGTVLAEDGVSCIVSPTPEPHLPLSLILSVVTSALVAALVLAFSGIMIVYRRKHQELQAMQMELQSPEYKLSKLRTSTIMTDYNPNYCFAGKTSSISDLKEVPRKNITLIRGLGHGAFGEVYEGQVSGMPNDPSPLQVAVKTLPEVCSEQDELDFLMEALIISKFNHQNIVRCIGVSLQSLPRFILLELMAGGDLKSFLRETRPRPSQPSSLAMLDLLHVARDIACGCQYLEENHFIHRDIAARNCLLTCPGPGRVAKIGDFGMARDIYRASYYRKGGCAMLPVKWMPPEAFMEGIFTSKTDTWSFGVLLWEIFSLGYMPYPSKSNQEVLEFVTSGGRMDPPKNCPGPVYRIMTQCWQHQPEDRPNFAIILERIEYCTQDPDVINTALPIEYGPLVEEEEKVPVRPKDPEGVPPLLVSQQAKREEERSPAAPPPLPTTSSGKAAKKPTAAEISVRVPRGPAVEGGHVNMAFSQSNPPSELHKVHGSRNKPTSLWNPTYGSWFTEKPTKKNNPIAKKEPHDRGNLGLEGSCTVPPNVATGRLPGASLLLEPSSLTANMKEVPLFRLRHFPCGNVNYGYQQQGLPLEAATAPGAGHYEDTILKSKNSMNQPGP
UniProt P10398: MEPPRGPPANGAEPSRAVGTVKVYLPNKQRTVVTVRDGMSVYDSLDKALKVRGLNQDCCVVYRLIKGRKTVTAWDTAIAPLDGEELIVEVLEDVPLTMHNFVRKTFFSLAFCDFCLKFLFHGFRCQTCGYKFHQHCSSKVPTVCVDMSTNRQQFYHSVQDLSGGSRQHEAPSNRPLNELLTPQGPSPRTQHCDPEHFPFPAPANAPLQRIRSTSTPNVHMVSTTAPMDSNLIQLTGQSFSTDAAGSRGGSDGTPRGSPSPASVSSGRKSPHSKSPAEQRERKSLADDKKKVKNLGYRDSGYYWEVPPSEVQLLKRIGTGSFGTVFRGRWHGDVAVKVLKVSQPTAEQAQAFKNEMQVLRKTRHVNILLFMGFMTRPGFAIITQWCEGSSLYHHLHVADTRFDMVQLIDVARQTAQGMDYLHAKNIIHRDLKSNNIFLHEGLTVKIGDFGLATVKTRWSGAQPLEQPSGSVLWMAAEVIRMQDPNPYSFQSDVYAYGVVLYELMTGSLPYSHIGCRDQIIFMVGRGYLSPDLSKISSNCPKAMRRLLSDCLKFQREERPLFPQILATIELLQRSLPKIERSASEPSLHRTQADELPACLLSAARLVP

kinase-Nluc reporter destabilization hit call, inactive:
CC(C)=CC[C@H](O)C1=CC(=O)c2c(O)ccc(O)c2C1=O [(-)-Alkannin] (2.5 µM) 0, CC(C)c1cnc(-c2cc(Cl)ccc2F)cc1Nc1ccncc1C(=O)NC(CO)CO (2.5 µM) 0, Cn1cnc(-c2cc3nccc(Oc4ccc(NC(=S)NC(=O)Cc5ccccc5)cc4F)c3s2)c1 [MGCD-265 analog] (10 µM) 0, COC1(c2sc3c(N4CCOCC4)nc(-c4cnc(N)nc4)nc3c2C)COC1 (2.5 µM) 0, Cc1cc(NC(=O)c2cccc(NC(=O)/C=C/CN(C)C)c2)ccc1Nc1nccc(-c2cccnc2)n1 (10 µM) 0, O=C(/C=C/c1ccc(O)c(O)c1)OC1CC(OC(=O)/C=C/c2ccc(O)c(O)c2)(C(=O)O)CC(O)C1O (stereo unspecified) [1,3-Dicaffeoylquinic acid] (10 µM) 0, COc1ccc2c(c1O)OC(C)(C)c1c-2ccc2c1C(=O)N(c1ccc(C(=O)c3ccccc3)cc1)C2=O [Ampkinone] (10 µM) 0, CNC(=O)Nc1ccc(-c2cc(-c3ccnc(Nc4ccc(C)c(S(=O)(=O)N(C)C)c4)n3)ccn2)cc1 [hSMG-1 inhibitor 11e] (2.5 µM) 0

biological target: ARAF (UniProt P10398); assay: as above; conditions: K562; 2-18 h

kinase-Nluc reporter destabilization hit call, inactive:
O=c1cc(O)cc(/C=C/c2ccc(O)c(O)c2)o1 [Hispidin] (10 µM) 0, CC1CN(C(=O)Nc2ccc(Cl)c(Cl)c2)C(=Nc2ccc(F)cc2)S1 (stereo unspecified) (10 µM) 0, COc1cc2c[n+](C)c3c4cc5c(cc4ccc3c2cc1OC)OCO5 [Nitidine (chloride)] (2 µM) 0, Cc1c(CN2CCN(S(C)(=O)=O)CC2)sc2c(N3CCOCC3)nc(-c3cnc(N)nc3)nc12 (2.5 µM) 0, Cc1cc([C@H](C)Nc2ccccc2)c2oc(N3CCOCC3)cc(=O)c2c1 (10 µM) 0, O=C(CNC(=O)c1ccc(-c2ccccc2)cc1)NC1CCCc2ccccc21 (stereo unspecified) [TAO Kinase inhibitor 1] (10 µM) 0, Cn1cc(-c2ccc(CNc3cc(-c4cnc5cc(OCCCN6CCCC6)ccn45)ncn3)cc2)cn1 (10 µM) 0, Cc1ccc(S(=O)(=O)Nc2ccccc2C=Nc2ccccc2NS(=O)(=O)c2ccc(C)cc2)cc1 (10 µM) 0, O=C(/C=C/c1ccc(O)c(O)c1)c1ccc(O[C@@H]2O[C@H](CO)[C@@H](O)[C@H](O)[C@H]2O)c(O)c1O [Marein] (10 µM) 0, O=C(NCCCNc1nc(Nc2cccc(NC(=O)N3CCCC3)c2)ncc1I)c1cccs1 (2.5 µM) 0, CN(CCNc1ccc2ncc(-c3ccc(C(N)=O)cc3)n2n1)C(=O)OC(C)(C)C (10 µM) 0, C=C(C)C(=O)Nc1cccc(-c2ncnc3[nH]cc(C(=O)OCC)c23)c1 (10 µM) 0, COc1ccc(C(=C2C(=O)Nc3ccccc32)c2ccc(OC)cc2)cc1 (10 µM) 0, CN1CCN(c2ccc(C(=O)Nc3cc(-c4cccc(NS(=O)(=O)c5ccccc5)c4)[nH]n3)cc2)CC1 [BPR1J-097 Hydrochloride] (2.5 µM) 0, C=CC(=O)Nc1cc2c(Nc3ccc(OCc4ccccn4)c(Cl)c3)ncnc2cc1OCCN1CCOCC1 (10 µM) 0, Cc1c(NC(=O)OC[C@@H]2COCCN2)cn2ncnc(Nc3ccc4c(cnn4Cc4cccc(F)c4)c3)c12 (10 µM) 0, CNc1nc(Nc2cnn(C3CCN(C4COC4)CC3F)c2Cl)ncc1C(F)(F)F (stereo unspecified) (10 µM) 0, O=C(NCCO)c1ccc2c(c1)nc(Nc1cccc(Cl)c1)c1ccncc12 [CK2 inhibitor 2] (10 µM) 0, N#CC(c1ccnc(NCCc2cccnc2)n1)c1nc2ccccc2s1 (stereo unspecified) (10 µM) 0, CCN(CC)S(=O)(=O)c1ccc(OC)c(N2CCN(C(=O)c3ccc(F)cc3C(F)(F)F)CC2)c1 (10 µM) 0, CO[C@H]1C[C@@H]2CC[C@@H](C)[C@@](O)(O2)C(=O)C(=O)N2CCCC[C@H]2C(=O)O[C@H]([C@H](C)C[C@@H]2CC[C@@H](O)[C@H](OC)C2)CC(=O)[C@H](C)/C=C(\C)[C@@H](O)[C@@H](OC)C(=O)[C@H](C)C[C@H](C)/C=C/C=C/C=C/1C [Rapamycin] (10 µM) 0, CN(C)CCN(Cc1ccc(Cl)cc1)c1ccccn1 [Chloropyramine hydrochloride] (10 µM) 0, O=C(Nc1ccc(F)cc1F)[C@H](NC(=S)Nc1cc(C(F)(F)F)cc(C(F)(F)F)c1)c1ccccc1 (2.5 µM) 0, Cc1ccc(Nc2cc(-c3cccc(N4C(=O)c5ccccc5C4=O)c3)ncn2)cc1NS(C)(=O)=O (10 µM) 0, CC(C)(C)c1ccc(S(=O)(=O)Nc2ccc(-n3ccnc3)cc2)cc1 (10 µM) 0, CCc1cc(O)c(F)cc1-c1ccc2c(-c3nc4c([nH]3)CN(C3CCN(C)CC3)CC4)n[nH]c2c1 [JAK-IN-5 (hydrochloride)] (2 µM) 0, CC1=C2C(=O)O[C@@H](c3ccoc3)[C@]2(C)CCC1 [Fraxinellone] (10 µM) 0, COc1cc(C(N)=O)nc(-c2cccc(C#C[C@]3(O)CCN(C)C3=O)c2)c1 (10 µM) 0, COc1ncc(-c2nc(N3CCOCC3)nc3c(CN4CCC(C(C)(C)O)CC4)cc(F)cc23)cc1NS(C)(=O)=O [Linperlisib] (10 µM) 0, Fc1ccc(-c2nc(-c3ccccc3F)[nH]c2-c2ccncc2)cc1 (2.5 µM) 0, CC(C)=CC[C@H](O)C1=CC(=O)c2c(O)ccc(O)c2C1=O [(-)-Alkannin] (2.5 µM) 0, CC(C)c1cnc(-c2cc(Cl)ccc2F)cc1Nc1ccncc1C(=O)NC(CO)CO (2.5 µM) 0, Cn1cnc(-c2cc3nccc(Oc4ccc(NC(=S)NC(=O)Cc5ccccc5)cc4F)c3s2)c1 [MGCD-265 analog] (10 µM) 0, COC1(c2sc3c(N4CCOCC4)nc(-c4cnc(N)nc4)nc3c2C)COC1 (2.5 µM) 0, Cc1cc(NC(=O)c2cccc(NC(=O)/C=C/CN(C)C)c2)ccc1Nc1nccc(-c2cccnc2)n1 (10 µM) 0, O=C(/C=C/c1ccc(O)c(O)c1)OC1CC(OC(=O)/C=C/c2ccc(O)c(O)c2)(C(=O)O)CC(O)C1O (stereo unspecified) [1,3-Dicaffeoylquinic acid] (10 µM) 0, COc1ccc2c(c1O)OC(C)(C)c1c-2ccc2c1C(=O)N(c1ccc(C(=O)c3ccccc3)cc1)C2=O [Ampkinone] (10 µM) 0, CNC(=O)Nc1ccc(-c2cc(-c3ccnc(Nc4ccc(C)c(S(=O)(=O)N(C)C)c4)n3)ccn2)cc1 [hSMG-1 inhibitor 11e] (2.5 µM) 0

Source: the supplement of paper PMC12823440, “Inhibitors supercharge kinase turnover through native proteolytic circuits” (Nature, 2025)
